PubChem BioAssay AID652272, Drosophila RNAi Screening Center | 2013
Purpose: 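Finding fly genes that regulate Hedgehog signal transduction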 (primary screen). Cell system: Drosophila clone 8 (Cl8) cells. Knock-down reagent: long dsRNA against Drosophila genes. Read-out: 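Firefly light from a Hedgehog-responsive ptc promoter reporter and Renilla reference light, both read on a plate reader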. Scale: firefly Hh reporter signal: higher = more ptc reporter light; Renilla reference signal: higher = more Renilla control light. Active means: 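Hit when the z-score averaged over two replicates is under -2 or over +3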. Meaning of the calls: active = hit: reporter lowered or raised; inactive = not a hit.
In all, the deposit lists about 21,000 reagents; this is an unselected part of those that have a named target and a result. In the full data, 503 (2.4%) got an active call. 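Raw plate light values, not normalised; calls rest on replicate z-scores that were not deposited; hits include reporter decreases as well as increases.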 No sequences are given here. The record does not give: the amount of reagent, the time to read-out.

no.	Target gene	DRSC id	firefly Hh reporter signal, replicate 1	firefly Hh reporter signal, replicate 2	Renilla reference signal, replicate 1	Renilla reference signal, replicate 2	call
1	Moe	DRSC18684	84466	53818	2268	1633	inactive
2	CG32679	DRSC17644	5.74e5	2.16e5	31542	4521	inactive
3	CG5001	DRSC00673	1.40e5	1.07e5	3591	2890	inactive
4	TBC1D16	DRSC02841	1.21e5	63546	3074	5371	inactive
5	CG15578	DRSC18066	82210	1.91e5	2796	7193	inactive
6	Urod	DRSC07569	94333	59195	2787	5389	inactive
7	Lip2	DRSC02577	97259	43424	2592	4497	inactive
8	Lip2	DRSC02578	1.58e5	37080	3875	5722	inactive
9	Cyp6a18	DRSC16632	1.25e5	1.03e5	4183	2054	inactive
10	ALiX	DRSC14564	94986	96461	2042	2516	inactive
11	VhaM9.7-d	DRSC15028	47796	54937	1185	1691	inactive

2 of these entries, reformatted:
Lip2 [DRSC02578]
- firefly Hh reporter signal, replicate 1: 1.58e5
- firefly Hh reporter signal, replicate 2: 37080
- Renilla reference signal, replicate 1: 3875
- Renilla reference signal, replicate 2: 5722
- call: inactive

Cyp6a18 [DRSC16632]
- firefly Hh reporter signal, replicate 1: 1.25e5
- firefly Hh reporter signal, replicate 2: 1.03e5
- Renilla reference signal, replicate 1: 4183
- Renilla reference signal, replicate 2: 2054
- call: inactive

The results go on:
no.	Target gene	DRSC id	firefly Hh reporter signal, replicate 1	firefly Hh reporter signal, replicate 2	Renilla reference signal, replicate 1	Renilla reference signal, replicate 2	call
12	CG7330	DRSC10813	1.45e5		1734	6589	inactive
13	CG7330	DRSC10814	1.37e5		1665	6401	inactive
14	Qtzl	DRSC01221	6.77e5	2.79e5	37762	10292	inactive
15	Coop	DRSC06604	1.38e5	72122	5476	1964	inactive
16	Jon66Cii	DRSC10778	45499	51664	5858	4176	inactive
17	lig	DRSC07246	48144	45664	3497	2432	inactive
18	lig	DRSC07247	72620	32280	2484	3676	inactive
19	CG32486	DRSC08413	62636	53245	3721	2528	inactive
20	CG32486	DRSC08488	56320	53040	2592	3949	inactive
21	Aasdh	DRSC03467	86752	59809	2154	5413	inactive
22	14-3-3epsilon	DRSC16370	5.69e5	70672	26790	1539	inactive
23	Vps29	DRSC00666	1.00e5	59804	4220	2647	inactive
